Results are given in words; binding and its absence hold for the method and conditions named. Some binding calls cover weakened binding; strength is not graded here.
Molecular target: PDL1 (PDL1细胞) (UniProt Q9NZQ7)
Test: cell ELISA on PDL1 cells

The chains behind the UniProt entries cited, without tags or fusion partners. Residues count along the entry.
UniProt Q9NZQ7, residues 19-290: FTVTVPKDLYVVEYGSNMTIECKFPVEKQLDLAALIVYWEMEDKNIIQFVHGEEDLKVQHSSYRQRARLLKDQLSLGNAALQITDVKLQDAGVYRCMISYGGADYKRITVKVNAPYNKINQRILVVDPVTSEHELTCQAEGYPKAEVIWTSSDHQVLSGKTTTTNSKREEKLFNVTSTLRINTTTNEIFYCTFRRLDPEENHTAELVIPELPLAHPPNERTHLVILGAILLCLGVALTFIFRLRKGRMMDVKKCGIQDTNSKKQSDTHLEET

binding: binds
B1: PDL1单抗对照402F1 (antibody, human IgG1, kappa, V domains shown)
VH: EVQLQESGPGLVKPSQTLSLTCTVSGDSFSSGYWNWIRQHPGKGLEYIGYVSYTGSTYYIPSLKSRVTISRDTSKNQFSLKLSSVTAADTAVYYCAGYRDWLHGYFDYWGQGTTVTVSS
VL: DIQMTQSPSSLSASVGDRVTITCKASQNVMDNVAWYQQKPGKAPKRLIYSASYRFSGVPSRFSGSGSGTEFTLTISSLQPEDFATYYCQQYNGYPLTFGQGTKLEIKR

From patent CN112830969A
